Assay results as given in the supplement of paper PMC6143611.
Structures can show the parent of a compound that is named as a salt. ± gives the uncertainty stated by the source. The list shows a part of the results. Part of the spread comes from offsets between plates or batches.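 At 6 dpf, larvae had a heat-shock-induced fluorescent stripe placed in rod outer segments; shedding distance, from stripe to outer segment tip, was measured in confocal stacks, roughly three fish per compound. Controls received 0.2% DMSO vehicle; compounds were flagged for ≥20% change versus same-week control and p < 0.001 (Dunnett test, mixed-effects models).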

Tested on: Danio rerio larva rod photoreceptor outer segment
Assay: rod outer segment shedding distance Ds, difference from same-week DMSO control mean; higher = less outer segment shedding
Details: 20 µM; treatment time: 4 days (6-10 dpf)

| SMILES | rod outer segment shedding distance Ds [um] |
| --- | --- |
| C=C[C@H]1CN2CC[C@H]1C[C@H]2[C@H](O)c1ccnc2ccc(OC)cc12 [Quinine HCl Dihydrate] | 0.73 ± 0.3 |
| Cc1nnc(NS(=O)(=O)c2ccc(N)cc2)s1 [Sulfamethizole] | -1.9 ± 0.35 |
| CO[C@H]1/C=C/O[C@@]2(C)Oc3c(C)c(O)c4c(O)c(c(/C=N/N5CCN(C)CC5)c(O)c4c3C2=O)NC(=O)/C(C)=C\C=C\[C@H](C)[C@H](O)[C@@H](C)[C@@H](O)[C@@H](C)[C@H](OC(C)=O)[C@@H]1C [Rifampin] | -0.21 ± 0.16 |
| COc1nc(C)cnc1NS(=O)(=O)c1cccnc1-c1ccc(-c2nnco2)cc1 [Zibotentan (ZD4054)] | -0.25 ± 0.15 |
